Test results reported in PubChem BioAssay AID540256 (National Center for Advancing Translational Sciences (NCATS), 2011).
Among all 300,000 compounds or so, about 3,700 (1.2%) were called active. This list was built around the results that the source calls inconclusive (neither active nor inactive); the mix of calls is not that of the screen. The call rests on the fitted dose curve; tested in HEK293 cells. Potencies of inconclusive entries are doubtful fits and often do not repeat.

Experiment: qHTS for Inhibitors of binding or entry into cells for Lassa Virus; further: nearly all actives have a fitted effect of over 50% in size
Settings: Lassa virus pseudotype entry inhibition, cell reporter; series mostly up to 37.9 µM
Potency means the concentration at half of the fitted maximal effect.

Structure (SMILES)	Potency
O=c1oc2cc(OCc3c(F)cccc3Cl)ccc2cc1-c1ccccn1	inconclusive: 17.8 µM [activator, partial curve, poor fit]
C=CCNC(=O)/C=C/c1cccs1	inconclusive: 15.8 µM [activator, single point]
CCOc1ccccc1C1CC(=O)NC(C)=C1C(=O)OC1CCCCCC1 (stereo unspecified)	inactive
CCOc1ccccc1-c1cc(C(=O)N/N=C/c2ccc3c(c2)OCO3)c2ccccc2n1	inconclusive: 3.55 µM [inhibitor, partial curve, poor fit]
COC(=O)C(Nc1ccccc1Cl)(c1cc(C)c(O)c(C)c1)C(F)(F)F (stereo unspecified)	inconclusive: 11.2 µM [inhibitor, partial curve]
COc1ccc2oc(=N)c(-c3nnc4n3CCCCC4)cc2c1	inactive
O=C(Nc1ccc(F)cc1)Nc1nnc(COc2ccccc2F)s1	inconclusive: 12.6 µM [inhibitor, partial curve, poor fit]
C/C(=N\NC(=O)C1(C)CC1(Br)Br)c1cccc(NC(=O)c2ccc(C)o2)c1 (stereo unspecified)	inconclusive: 22.4 µM [inhibitor, partial curve, poor fit]
O=C(c1cc(=O)c2cc(Cl)ccc2o1)N1CCN(Cc2ccccc2)CC1	inconclusive: 35.5 µM [activator, single point]
O=C(COc1ncnc2ccccc12)c1ccc2c(c1)OCCO2	inconclusive: 35.5 µM [inhibitor, single point]
O=C(Nc1cc(S(=O)(=O)Nc2ccc(Cl)cc2)ccc1O)c1ccc(S(=O)(=O)N2CCCCCC2)cc1	inconclusive: 35.5 µM [inhibitor, partial curve, poor fit]
Cc1ccc(-c2cc(C(=O)NCc3ccccn3)c3ccccc3n2)cc1C	inconclusive: 35.5 µM [inhibitor, single point]
CCCn1c(NC(=O)c2ccccc2Br)nc2ccccc21	inconclusive: 35.5 µM [inhibitor, single point]
Cc1cccc(OCc2nnc(SCC(=O)Nc3ccc(C)c(Cl)c3)o2)c1	inconclusive: 6.51 µM [activator, single point]
COc1ccc(C=O)cc1COc1ccccc1F	inconclusive: 4.47 µM [inhibitor, partial curve, poor fit]
O=C(Nc1cc2nn(-c3ccccc3)nc2cc1Cl)c1ccco1	inconclusive: 1.26 µM [activator, single point]
CSc1cccc(NS(=O)(=O)c2ccc3[nH]cc(C(=O)N4CCCC4)c(=O)c3c2)c1	inactive
COc1ccc(C(=O)NC2=NCCS2)c(OC)c1	inconclusive: 10 µM [inhibitor, partial curve]
COc1ccc(OC[C@@H]2CC3[C@@H](CC[C@@H](C)[C@H]3c3ccc(Br)cc3)C(=O)O2)cc1 (stereo partly specified)	inconclusive: 1.19 µM [activator, single point]
Cc1ccccc1OCCC(=O)OCC(=O)NC1CC1	inconclusive: 1.26 µM [activator, full curve, poor fit]
CCOC(=O)N1CCN(/C=C(\C#N)c2nc3ccccc3s2)CC1	inconclusive: 6.51 µM [activator, full curve]

Structure (SMILES)	Potency
O=C1C(C2=NC(c3ccccn3)C3C(=O)N(c4ccc(OC(F)(F)F)cc4)C(=O)C23)=C(O)c2ccccc21 (stereo unspecified)	inconclusive: 8.91 µM [inhibitor, partial curve, poor fit]
CCOC(=O)c1c(CN(C)C)oc2cc(CN(C)C)c(O)c(CSc3ccccc3)c12	inactive
COc1ccc2cc(C(=O)C3CCCN(Cc4cnc(C)s4)C3)ccc2c1 (stereo unspecified)	inconclusive: 25.1 µM [inhibitor, partial curve, poor fit]
O=S(=O)(Nc1ccc(O)c(Sc2nc3ccccc3s2)c1)c1cccc2ccccc12	inconclusive: 35.5 µM [inhibitor, single point]
CCOC(=O)C1CCCN(C(=O)CSc2ccc(Br)cc2)C1 (stereo unspecified)	inconclusive: 35.5 µM [inhibitor, partial curve, poor fit]
COc1ccc(-c2ccc(CN3C(CC(C)C)C(=O)N(Cc4cn(CC5CCCCC5)nn4)CCS3(=O)=O)cc2)cc1 (stereo unspecified)	inconclusive: 22.3 µM [inhibitor, partial curve]
NC1=Nc2ccccc2Oc2ccccc21	inconclusive: 0.73 µM [activator, full curve, poor fit]
Cc1cc(Br)ccc1OCC(=O)NNC(=O)CCc1ccccc1	inconclusive: 12.6 µM [activator, single point]
COc1ccc(S(=O)(=O)Oc2ccc3ccccc3c2)cc1	inconclusive: 29.1 µM [inhibitor, single point]
CCCCn1cc(S(=O)(=O)c2ccc(CC)cc2)c(=O)c2cc(F)c(N3CCCC(C)C3)cc21 (stereo unspecified)	inconclusive: 8.91 µM [inhibitor, partial curve, poor fit]
COc1ccccc1CCNC(=O)c1ccc(NC(=O)N2CC(C)Sc3ccccc32)cc1 (stereo unspecified)	inconclusive: 35.5 µM [inhibitor, partial curve, poor fit]
O=C1CCC(C(=O)N2CCCCCCC2)CN1Cc1cccc(C(F)(F)F)c1 (stereo unspecified)	inconclusive: 3.98 µM [activator, single point]
COc1ccc(OCCOc2ccc(C)nc2[N+](=O)[O-])cc1	inactive
O=C(COc1ccc2c(c1)OCO2)Nc1ccc2c(c1)oc1ccccc12	inconclusive: 35.5 µM [inhibitor, single point]
C(=N\Nc1nc(-c2ccccc2)cs1)/c1ccco1	inconclusive: 35.5 µM [inhibitor, single point]
C[N+]1(C)C2CCC1CC(OC(=O)c1c[nH]c3ccccc13)C2 (stereo unspecified)	inconclusive: 0.164 µM [inhibitor, partial curve, poor fit]
CC1CC(=S)Nc2ccccc2N1Cc1ccccc1 (stereo unspecified)	inconclusive: 35.5 µM [inhibitor, single point]
CN(C)CCNc1oc(COc2ccc(-c3ccccc3)cc2)nc1C#N	inconclusive: 3.26 µM [activator, single point]
CC(C)c1c(C(=O)N/N=C/c2cccc(OCc3ccc(F)cc3)c2)nnn1-c1nonc1N	inconclusive: 22.4 µM [inhibitor, single point]
COc1ccc(CCNC(=O)c2cc(C(=O)c3cc(Cl)ccc3O)cn(CCc3ccc(OC)cc3)c2=O)cc1	inconclusive: 11.2 µM [inhibitor, partial curve, poor fit]
CC(=O)c1ccc(NC(=O)c2ccc(C)c(Br)c2)cc1	inconclusive: 35.5 µM [inhibitor, single point]

Individual results from the results shown:
O=S(=O)(Nc1ccc(O)c(Sc2nc3ccccc3s2)c1)c1cccc2ccccc12 – Potency: inconclusive: 35.5 µM [inhibitor, single point]
Cc1cccc(OCc2nnc(SCC(=O)Nc3ccc(C)c(Cl)c3)o2)c1 – Potency: inconclusive: 6.51 µM [activator, single point]

(listing goes on)

Structure (SMILES)	Potency
O=C(/C=C/c1ccc2c(c1)OCO2)NCCSCc1cccc(Cl)c1	inconclusive: 35.5 µM [inhibitor, single point]
O=C(NCCO)/C(=C/c1ccco1)NC(=O)c1ccco1	inconclusive: 2.51 µM [inhibitor, partial curve, poor fit]
COc1ccc(S(=O)(=O)N2CCC3(CC2)CC(=O)c2ccccc2O3)cc1C	inconclusive: 0.282 µM [inhibitor, full curve, poor fit]
CC(NC(=O)CN(c1cccc(C(F)(F)F)c1)S(=O)(=O)c1ccc(Cl)c([N+](=O)[O-])c1)c1ccccc1 (stereo unspecified)	inconclusive: 28.2 µM [inhibitor, single point]
CCCCCCCCCCOC(=O)C[N+](C)(C)C/C=C(/C)Cl	inactive
CN1CCc2ccccc2Cc2[nH]c3ccccc3c2CC1	inactive
Cc1ccc2[nH]c(=O)c(C(c3nnnn3C3CCCC3)N(Cc3cccnc3)Cc3ccco3)cc2c1 (stereo unspecified)	inconclusive: 17.8 µM [inhibitor, partial curve, poor fit]
CC(Cc1cccs1)NC(=O)c1cccs1 (stereo unspecified)	inactive
Cc1ccc(/C=N\NC(=O)C2CN(S(=O)(=O)c3ccccc3)CCN2S(=O)(=O)c2ccccc2)cc1 (stereo unspecified)	inconclusive: 2.82 µM [inhibitor, partial curve]
CCCN1C(=O)/C(=C/c2ccco2)SC1=Nc1ccc(OC)cc1	inconclusive: 17.8 µM [inhibitor, single point]
O=C(Oc1ccc(-c2cnc3ccccc3n2)cc1)c1cc([N+](=O)[O-])ccc1Cl	inactive
C=CCn1c(SCC(=O)Nc2sc(C)c(C)c2C(=O)OCC)nnc1-c1sc(N)nc1C	inconclusive: 1 µM [inhibitor, partial curve, poor fit]
O=C(C=Cc1ccccc1)Nc1cccc(C(=O)N2CCCC2)c1	inconclusive: 3.15 µM [activator, full curve]
CN(CC(=O)Nc1ccc(Cl)cc1)C(=O)CCc1c[nH]c2ccccc12	inconclusive: 35.5 µM [inhibitor, single point]
CN1CCN(S(=O)(=O)c2ccc(NC(=O)Cc3cccs3)cc2)CC1	inconclusive: 20.6 µM [activator, single point]
COCCNC(=O)CSc1cc(=O)n(C)c2cc(Cl)ccc12	inconclusive: 12.6 µM [activator, partial curve, poor fit]
O=C(CCSc1ccc(Cl)cc1)N1CCN(c2ncccn2)CC1	inconclusive: 17.8 µM [inhibitor, partial curve, poor fit]
Cc1cc(C)cc(N(C(=O)c2ccc3c(c2)OCO3)C2C=CS(=O)(=O)C2)c1 (stereo unspecified)	inconclusive: 23.1 µM [activator, single point]
O=C(OCC(=O)c1cccs1)C1=COCCO1	inconclusive: 3.16 µM [activator, single point]
